# Measured values: publication PMC11928053
# Protein sequences, listed by entry. Tags and fused reporters are not part of them.
# UniProt Q9GZV5: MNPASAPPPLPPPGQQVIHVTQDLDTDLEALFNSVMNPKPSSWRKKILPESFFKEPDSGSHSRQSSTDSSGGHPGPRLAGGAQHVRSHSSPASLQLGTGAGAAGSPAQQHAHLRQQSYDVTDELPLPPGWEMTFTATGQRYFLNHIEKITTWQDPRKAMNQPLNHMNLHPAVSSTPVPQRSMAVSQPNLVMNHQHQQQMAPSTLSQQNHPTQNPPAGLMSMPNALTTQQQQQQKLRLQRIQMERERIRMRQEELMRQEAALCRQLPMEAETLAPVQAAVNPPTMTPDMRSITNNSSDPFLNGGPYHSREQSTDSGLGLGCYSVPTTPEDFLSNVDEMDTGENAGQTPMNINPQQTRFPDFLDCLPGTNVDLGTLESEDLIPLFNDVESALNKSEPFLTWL
# UniProt O09106: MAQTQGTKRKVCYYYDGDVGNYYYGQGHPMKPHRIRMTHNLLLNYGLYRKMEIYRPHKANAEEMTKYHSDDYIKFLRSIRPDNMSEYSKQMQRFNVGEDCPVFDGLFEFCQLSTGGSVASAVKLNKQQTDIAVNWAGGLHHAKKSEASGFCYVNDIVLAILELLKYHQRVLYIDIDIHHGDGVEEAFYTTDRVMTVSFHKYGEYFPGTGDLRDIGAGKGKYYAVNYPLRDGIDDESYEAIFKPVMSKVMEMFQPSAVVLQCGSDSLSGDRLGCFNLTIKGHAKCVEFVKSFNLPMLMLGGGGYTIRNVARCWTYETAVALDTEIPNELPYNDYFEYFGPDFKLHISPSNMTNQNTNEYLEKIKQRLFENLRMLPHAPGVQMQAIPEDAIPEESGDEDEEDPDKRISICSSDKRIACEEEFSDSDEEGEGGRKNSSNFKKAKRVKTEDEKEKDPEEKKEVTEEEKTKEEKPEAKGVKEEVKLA
# UniProt Q6PDQ2: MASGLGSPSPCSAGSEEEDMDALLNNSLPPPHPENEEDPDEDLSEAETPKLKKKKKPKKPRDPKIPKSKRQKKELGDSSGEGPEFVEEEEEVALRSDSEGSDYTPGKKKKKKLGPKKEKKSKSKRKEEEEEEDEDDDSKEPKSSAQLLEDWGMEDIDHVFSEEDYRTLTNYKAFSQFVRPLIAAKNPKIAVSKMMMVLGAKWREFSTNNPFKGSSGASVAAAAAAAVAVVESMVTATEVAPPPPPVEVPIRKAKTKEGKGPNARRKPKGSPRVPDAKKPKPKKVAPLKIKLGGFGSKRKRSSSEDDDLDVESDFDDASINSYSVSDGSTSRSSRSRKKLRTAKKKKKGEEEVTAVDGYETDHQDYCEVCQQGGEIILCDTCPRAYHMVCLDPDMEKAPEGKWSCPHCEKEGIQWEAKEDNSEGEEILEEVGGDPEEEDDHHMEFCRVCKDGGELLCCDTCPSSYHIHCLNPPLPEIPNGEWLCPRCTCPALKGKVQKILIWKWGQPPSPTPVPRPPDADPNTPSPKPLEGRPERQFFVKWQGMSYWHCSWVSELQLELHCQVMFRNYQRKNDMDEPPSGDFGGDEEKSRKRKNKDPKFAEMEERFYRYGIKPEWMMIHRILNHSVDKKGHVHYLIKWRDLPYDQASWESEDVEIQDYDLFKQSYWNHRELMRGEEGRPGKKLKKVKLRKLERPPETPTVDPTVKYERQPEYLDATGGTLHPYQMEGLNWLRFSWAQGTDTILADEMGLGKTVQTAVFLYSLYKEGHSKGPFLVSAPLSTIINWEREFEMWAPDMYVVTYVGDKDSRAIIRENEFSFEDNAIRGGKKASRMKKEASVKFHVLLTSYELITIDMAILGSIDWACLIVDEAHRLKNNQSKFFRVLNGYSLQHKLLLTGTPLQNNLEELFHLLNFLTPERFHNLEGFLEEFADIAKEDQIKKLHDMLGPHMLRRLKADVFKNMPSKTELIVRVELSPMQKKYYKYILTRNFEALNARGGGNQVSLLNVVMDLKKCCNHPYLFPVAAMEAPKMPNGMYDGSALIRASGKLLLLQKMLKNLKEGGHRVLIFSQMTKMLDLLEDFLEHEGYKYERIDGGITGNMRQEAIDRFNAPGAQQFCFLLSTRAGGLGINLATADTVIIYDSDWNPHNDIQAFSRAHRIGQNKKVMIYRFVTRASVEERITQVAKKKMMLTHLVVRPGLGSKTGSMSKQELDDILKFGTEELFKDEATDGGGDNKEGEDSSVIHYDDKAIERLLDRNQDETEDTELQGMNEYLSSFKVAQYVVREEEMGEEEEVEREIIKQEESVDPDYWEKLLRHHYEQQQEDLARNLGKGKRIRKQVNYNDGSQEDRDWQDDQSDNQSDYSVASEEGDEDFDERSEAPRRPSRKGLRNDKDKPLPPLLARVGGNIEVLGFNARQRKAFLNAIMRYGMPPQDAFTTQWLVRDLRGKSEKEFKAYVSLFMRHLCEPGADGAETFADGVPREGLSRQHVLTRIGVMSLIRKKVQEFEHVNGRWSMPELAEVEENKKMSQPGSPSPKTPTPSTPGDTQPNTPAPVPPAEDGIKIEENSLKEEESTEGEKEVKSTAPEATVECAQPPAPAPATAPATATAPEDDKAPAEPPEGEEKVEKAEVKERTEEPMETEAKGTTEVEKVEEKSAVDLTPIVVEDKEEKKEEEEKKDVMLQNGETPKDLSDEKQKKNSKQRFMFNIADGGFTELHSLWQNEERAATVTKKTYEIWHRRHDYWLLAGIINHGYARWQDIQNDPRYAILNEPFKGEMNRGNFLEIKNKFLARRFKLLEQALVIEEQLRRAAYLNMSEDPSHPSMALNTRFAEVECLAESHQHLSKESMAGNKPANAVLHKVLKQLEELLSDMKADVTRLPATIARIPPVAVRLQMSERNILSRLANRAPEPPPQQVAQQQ
# UniProt Q9R190: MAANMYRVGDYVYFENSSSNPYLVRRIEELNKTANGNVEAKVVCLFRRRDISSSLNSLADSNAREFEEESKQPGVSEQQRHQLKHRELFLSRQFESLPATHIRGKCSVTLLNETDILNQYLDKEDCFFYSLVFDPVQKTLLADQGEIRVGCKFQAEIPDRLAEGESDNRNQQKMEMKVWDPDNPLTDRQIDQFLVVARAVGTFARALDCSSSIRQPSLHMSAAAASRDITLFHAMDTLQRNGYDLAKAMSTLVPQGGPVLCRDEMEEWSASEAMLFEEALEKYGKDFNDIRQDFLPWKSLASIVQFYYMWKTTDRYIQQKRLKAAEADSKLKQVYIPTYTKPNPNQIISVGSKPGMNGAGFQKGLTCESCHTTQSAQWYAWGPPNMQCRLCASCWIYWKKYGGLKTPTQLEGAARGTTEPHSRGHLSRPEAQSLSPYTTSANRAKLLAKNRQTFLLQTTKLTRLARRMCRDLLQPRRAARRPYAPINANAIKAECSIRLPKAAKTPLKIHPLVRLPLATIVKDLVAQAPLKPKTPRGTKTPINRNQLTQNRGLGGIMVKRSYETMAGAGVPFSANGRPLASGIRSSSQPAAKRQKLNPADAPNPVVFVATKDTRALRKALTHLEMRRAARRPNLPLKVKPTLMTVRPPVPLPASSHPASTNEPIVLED
# UniProt Q80U72: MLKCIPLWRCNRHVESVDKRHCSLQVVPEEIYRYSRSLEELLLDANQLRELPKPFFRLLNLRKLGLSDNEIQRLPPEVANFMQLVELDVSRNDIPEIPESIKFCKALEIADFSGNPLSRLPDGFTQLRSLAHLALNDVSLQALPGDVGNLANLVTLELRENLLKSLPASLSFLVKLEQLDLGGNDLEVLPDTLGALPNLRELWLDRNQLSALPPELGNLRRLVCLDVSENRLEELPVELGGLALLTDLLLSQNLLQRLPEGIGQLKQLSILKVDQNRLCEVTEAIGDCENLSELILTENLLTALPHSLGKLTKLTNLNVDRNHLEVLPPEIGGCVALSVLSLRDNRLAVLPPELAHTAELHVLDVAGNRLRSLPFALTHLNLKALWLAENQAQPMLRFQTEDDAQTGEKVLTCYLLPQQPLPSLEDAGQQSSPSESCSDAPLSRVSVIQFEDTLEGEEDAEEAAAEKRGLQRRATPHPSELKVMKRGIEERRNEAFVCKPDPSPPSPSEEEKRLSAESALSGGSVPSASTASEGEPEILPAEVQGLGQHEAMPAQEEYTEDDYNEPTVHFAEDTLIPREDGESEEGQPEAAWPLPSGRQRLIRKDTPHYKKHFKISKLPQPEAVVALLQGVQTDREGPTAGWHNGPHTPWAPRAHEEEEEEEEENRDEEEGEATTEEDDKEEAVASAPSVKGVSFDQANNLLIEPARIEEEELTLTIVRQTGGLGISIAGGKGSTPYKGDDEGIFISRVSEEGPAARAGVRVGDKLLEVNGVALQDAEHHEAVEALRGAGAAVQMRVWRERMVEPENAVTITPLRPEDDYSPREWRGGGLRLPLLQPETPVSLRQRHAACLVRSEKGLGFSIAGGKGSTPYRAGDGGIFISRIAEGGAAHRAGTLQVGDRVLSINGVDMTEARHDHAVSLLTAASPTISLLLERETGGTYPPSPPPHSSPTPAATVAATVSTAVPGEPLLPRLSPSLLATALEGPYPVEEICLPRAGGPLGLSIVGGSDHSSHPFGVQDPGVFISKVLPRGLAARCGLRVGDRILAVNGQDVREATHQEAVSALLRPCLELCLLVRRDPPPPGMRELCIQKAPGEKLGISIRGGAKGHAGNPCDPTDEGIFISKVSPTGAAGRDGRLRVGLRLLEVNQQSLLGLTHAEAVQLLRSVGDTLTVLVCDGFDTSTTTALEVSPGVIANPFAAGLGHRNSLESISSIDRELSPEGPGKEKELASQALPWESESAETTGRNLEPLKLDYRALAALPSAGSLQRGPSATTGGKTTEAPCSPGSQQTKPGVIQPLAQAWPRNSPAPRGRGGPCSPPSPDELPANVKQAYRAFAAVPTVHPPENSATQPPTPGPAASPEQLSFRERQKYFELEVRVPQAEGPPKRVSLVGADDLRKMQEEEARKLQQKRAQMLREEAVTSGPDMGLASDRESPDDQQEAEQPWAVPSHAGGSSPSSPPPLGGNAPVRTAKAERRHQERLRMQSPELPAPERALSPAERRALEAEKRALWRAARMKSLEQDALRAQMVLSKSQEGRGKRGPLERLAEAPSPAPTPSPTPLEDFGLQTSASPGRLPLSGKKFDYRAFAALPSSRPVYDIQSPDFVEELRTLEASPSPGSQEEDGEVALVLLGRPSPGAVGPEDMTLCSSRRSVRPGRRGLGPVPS
# UniProt Q08122: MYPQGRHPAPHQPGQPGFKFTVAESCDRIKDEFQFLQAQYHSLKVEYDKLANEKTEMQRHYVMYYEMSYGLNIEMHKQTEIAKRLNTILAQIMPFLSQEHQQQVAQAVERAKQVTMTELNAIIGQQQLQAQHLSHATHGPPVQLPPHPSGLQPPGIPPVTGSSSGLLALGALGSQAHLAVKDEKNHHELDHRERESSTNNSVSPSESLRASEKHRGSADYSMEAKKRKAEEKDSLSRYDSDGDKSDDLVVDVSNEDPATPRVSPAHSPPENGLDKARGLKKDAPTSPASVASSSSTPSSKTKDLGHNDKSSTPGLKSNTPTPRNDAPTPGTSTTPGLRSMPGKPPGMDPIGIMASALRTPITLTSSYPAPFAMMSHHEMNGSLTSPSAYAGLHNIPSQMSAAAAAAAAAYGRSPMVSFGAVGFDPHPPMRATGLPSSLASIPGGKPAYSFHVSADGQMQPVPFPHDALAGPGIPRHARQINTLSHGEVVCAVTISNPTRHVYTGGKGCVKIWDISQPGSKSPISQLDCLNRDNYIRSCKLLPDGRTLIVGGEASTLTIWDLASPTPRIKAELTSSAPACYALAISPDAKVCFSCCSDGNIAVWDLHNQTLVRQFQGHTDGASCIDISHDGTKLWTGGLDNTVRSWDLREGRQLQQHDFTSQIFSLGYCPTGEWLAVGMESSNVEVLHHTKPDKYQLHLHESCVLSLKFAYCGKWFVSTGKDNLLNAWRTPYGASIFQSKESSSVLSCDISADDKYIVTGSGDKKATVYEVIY
# Biological target: EYFP–TAZ (UniProt Q9GZV5)
# Test: affinity purification with mass spectrometry; EYFP-TAZ from transfected HEK293T lysate immobilised on GFP-Trap magnetic agarose beads, washed, incubated overnight at 4°C with 1 mg of neonatal rat cardiomyocyte extract; hits at least threefold enriched over the GFP control; LC-MS/MS; only the target purified
row,binding,Molecule
1,binds,MCM2 (from UniProt D3ZP96 1-905)
2,binds,"SMC1A (protein, UniProt Q9Z1M9 1-1233) MGFLKLIEIENFKSYKGRQIIGPFQRFTAIIGPNGSGKSNLMDAISFVLGEKTSNLRVKTLRDLIHGAPVGKPAANRAFVSMVYSEEGAEDRTFARVIVGGSSEYKINNKVVQLHEYSEELEKLGILIKARNFLVFQGAVESIAMKNPKERTALFEEISRSGELAQEYDKRKKEMVKAEEDTQFNYHRKKNIAAERKEAKQEKEEADRYQALKDEVVRAQVQLQLFKLYHNEVEIEKLNKELASKNKEIEKDKKRMDKVEDELKEKKKELGKMMREQQQIEKEIKEKDSELNQKRPQYIKAKENTSHKIKKLEAAKKSLQNRQKHYKKRKGDMDELEKEMLSVEKARQEFEERMEEESQSQGRDLTLEENQVKKYHRLKEEASKRAATLAQELEKFNRDQKADQDRLDLEERKKVETEAKIKQKLREIEENQKRIEKLEEYITTSKQSLEEQKKLEGELTEEVEMAKRRIDEINKELNQVMEQLGDARIDRQESSRQQRKAEIMESIKRLYPGSVYGRLIDLCQPTQKKYQIAVTKVLGKNMDAIIVDSEKTGRDCIQYIKEQRGEPETFLPLDYLEVKPTDEKLRELKGAKLVIDVIRYEPPHIKKALQYACGNALVCDNVEDARRIAFGGHQRHKTVALDGTLFQKSGVISGGASDLKAKARRWDEKAVDKLKEKKERLTEELKEQMKAKRKEAELRQVQSQAHGLQMRLKYSQSDLEQTKTRHLALNLQEKSKLESELANFGPRINDIKRIIQSREREMKDLKEKMNQVEDEVFEEFCREIGVRNIREFEEEKVKRQNEIAKKRLEFENQKTRLGIQLDFEKNQLKEDQDKVHMWEQTVKKDENEIEKLKKEEQRHMKIIDETMAQLQDLKNQHLAKKSEVNDKNHEMEEIRKKLGGANKEMTHLQKEVTAIETKLEQKRSDRHNLLQACKMQDIKLPLSKGTMDDISQEEGGSQGEESVSGSQRTSSIYAREALIEIDYGDLCEDLKDAQAEEEIKQEMNTLQQKLNEQQSVLQRIAAPNMKAMEKLESVRDKFQETSDEFEAARKRAKKAKQAFEQIKKERFDRFNACFESVATNIDEIYKALSRNSSAQAFLGPENPEEPYLDGINYNCVAPGKRFRPMDNLSGGEKTVAALALLFAIHSYKPAPFFVLDEIDAALDNTNIGKVANYIKEQSTCNFQAIVISLKEEFYTKAESLIGVYPEQGDCVISKVLTFDLTKYPDANPNPNEQ"
3,binds,"MCM4 (protein, UniProt G3V681 1-862) MSSPASTPSRRSSRRGRVTPTQSLRSEESRSSPSGRRRGEDSSTGELLPMPTSPGADLQSPAAQNALFSSPPQMHSSAIPLEFDVSSPLTYGTPSSRVEGTPRSGVRGTPMRQRPDLGSARKGLQVDLQSDGAAAEDTVASEQSLGQKLVIWGTDVNVATCKEHFQRFLQCFTDPLAKEEENVGIDITQPLYMQRLGEINITGEPFLNVNCEHIKSFGKNLYRQLISYPQEVIPTFDMAVNEIFFDRYPDSILEHQIQVRPFNALKTKSMRNLNPEDIDQLITISGMVIRTSQLIPEMQEAFFQCQVCAHTTRVEMDRGRIAEPCTCVHCHTTHSMALIHNRSLFSDKQMIKLQESPEDMPAGQTPHTVVLFAHNDLVDKVQPGDRVNVTGIYRAVPIRVNPRVSNVKSVYKTHIDVIHYRKTDAKRLHGLDEEAEQKLFSEKRVKLLKELSRKPDIYERLASALAPSIYEHEDIKKGILLQLFGGTRKDFSHTGRGKFRAEINILLCGDPGTSKSQLLQYVYNLVPRGQYTSGKGSSAVGLTAYVMKDPETRQLVLQTGALVLSDNGICCIDEFDKMNESTRSVLHEVMEQQTLSIAKAGIICQLNARTSVLAAANPIESQWNPKKTTIENIQLPHTLLSRFDLIFLMLDPQDEAYDRRLAHHLVSLYYQSEEQVEQEFLDMAVLKDYIAYAHSTIMPRLSEEASQALIEAYVNMRKIGSSRGMVSAYPRQLESLIRLAEAHAKVRFSDKVEAIDVEEAKRLHREALKQSATDPRTGIVDISILTTGMSATSRKRKEELAEALRKLILSKGKTPALKYQQLFEDIRGQSDTAITKDMFEEALRALADDDFLTVTGKTVRLL"
4,binds,"MCM3 (protein, UniProt D3ZFP4 1-813) MAGTVVLDDVELREAQRDYLDFLDDEEDQGIYQNKVRELISDNQYRLIVNVNDLRRKNEKRANRLLNNAFEELVAFQRALKDFVASIDATYAKQYEEFYIGLEGSFGSKHVSPRTLTSCFLSCVVCVEGIVTKCSLVRPKVVRSVHYCPATKKTIERRYSDLTTLVAFPSSSVYPTKDEENNPLETEYGLSVYKDHQTITIQEMPEKAPAGQLPRSVDVILDDDLVDKVKPGDRIQVVGTYRCLPGKKGGYTSGTFRTVLIACNVKQMSKDIQPAFSADDIAKIKKFSKTRSKDVFEQLARSLAPSIHGHDYVKKAILCLLLGGVERELENGSHIRGDINILLIGDPSVAKSQLLRYVLCTAPRAIPTTGRGSSGVGLTAAVTTDQETGERRLEAGAMVLADRGVVCIDEFDKMSDMDRTAIHEVMEQGRVTIAKAGIHARLNARCSVLAAANPVYGRYDQYKTPMENIGLQDSLLSRFDLLFIMLDQMDPEQDREISDHVLRMHQYRAPGEQDGDALPLGSSVDILATDDPDFTQDDQQDTRIYEKHDNLLHGSKKKREKMVSAAFMKKYIHVAKIIKPTLTQESAAYIAEEYSRLRSQDSMSSDTARTSPVTARTLETLIRLATAHAKARMSKTVDLQDAEEAVELVQYAYFKKVLEKEKKRKKPSEDESDLEDEEEKSQEEDTEQTRKRRKTQAKDGESYDPYDFSEAEREMPQVHTPKTDDSQEKTDESQETQESQKVELSESRLKAFKAALLEVFQEAHAQSVGMIHLTESINRNKEEPFSSEEIQASLSRMQDDNQVMVSEGIVFLI"

# Biological target: EYFP–TAZ (UniProt Q9GZV5)
# Test: affinity purification with mass spectrometry; EYFP-TAZ from transfected HEK293T lysate immobilised on GFP-Trap magnetic agarose beads, washed (RIPA, NP-40 lysis buffer), incubated overnight at 4°C with 1 mg of prey extract (nuclear-enriched C2C12 or neonatal rat cardiomyocyte); the text does not tell which of the two datasets holds each hit; hits at least threefold enriched over the GFP control; LC-MS/MS; only the target purified
row,Molecule,binding
1,ARID1A (from UniProt A2BH40 1-2283),binds
2,FACT complex subunit SSRP1 (from UniProt Q08943 1-708),binds
3,HDAC1 (from UniProt O09106 1-482),binds
4,MPDZ (from UniProt Q8VBX6 1-2055),binds
5,SMARCC1 (from UniProt P97496 1-1104),binds

# The remaining lines, values ahead:
row,binding,Molecule
1,binds,CHD4 (from UniProt Q6PDQ2 1-1915)
2,binds,MTA2 (endogenous) (from UniProt Q9R190 1-668)
3,binds,SCRIB (from UniProt Q80U72 1-1665)
4,binds,SMARCA4 (from UniProt Q3TKT4 1-1613)
5,binds,TLE3 (endogenous) (from UniProt Q08122 1-772)
6,binds,"LATS1 kinase (enzyme, UniProt Q8BYR2 1-1129) MKRGEKPEGYRQMRPKTFPASNYPGSSRQMLQEIRESLRNLSKPSDASKAEHNLNKMSTEDPRQVRNPPKFGTHHKALQEIRNSLLPFANETSSSRSPSEVNPQMFQDLQAAGFDEDMVIQALQKTNNRSIEAAVEFISKMSYQDPRREQMSAAAARPINATMKPGNVQHSINRKQSWKGSKESLVPQRHGPSLGENVVYRSESPNSQADVGRPLSGSGIAAFAQAHPSNGQRVNPPPPPQVRSVTPPPPPRGQTPPPRGTTPPPPSWEPSSQTKRYSGNMEYVISRISPVPPGAWQEGYPPPPLTTSPMNPPSQAQRAISSVPVGRQPIIMQSTSKFNFTPGRPGVQNGGGQSDFIVHQNVPTGSVTRQPPPPYPLTPANGQSPSALQTGASAAPPSFANGNVPQSMMVPNRNSHNMELYNINVPGLQTAWPQSSSAPAQSSPSGGHEIPTWQPNIPVRSNSFNNPLGSRASHSANSQPSATTVTAITPAPIQQPVKSMRVLKPELQTALAPTHPSWMPQPVQTVQPTPFSEGTASSVPVIPPVAEAPSYQGPPPPYPKHLLHQNPSVPPYESVSKPCKDEQPSLPKEDDSEKSADSGDSGDKEKKQITTSPITVRKNKKDEERRESRIQSYSPQAFKFFMEQHVENVLKSHQQRLHRKKQLENEMMRVGLSQDAQDQMRKMLCQKESNYIRLKRAKMDKSMFVKIKTLGIGAFGEVCLARKVDTKALYATKTLRKKDVLLRNQVAHVKAERDILAEADNEWVVRLYYSFQDKDNLYFVMDYIPGGDMMSLLIRMGIFPENLARFYIAELTCAVESVHKMGFIHRDIKPDNILIDRDGHIKLTDFGLCTGFRWTHDSKYYQSGDHPRQDSMDFSNEWGDPSNCRCGDRLKPLERRAARQHQRCLAHSLVGTPNYIAPEVLLRTGYTQLCDWWSVGVILFEMLVGQPPFLAQTPLETQMKVINWQTSLHIPPQAKLSPEASDLIIKLCRGPEDRLGKNGADEIKAHPFFKTIDFSSDLRQQSASYIPKITHPTDTSNFDPVDPDKLWSDGSEEENISDTLNGWYKNGKHPEHAFYEFTFRRFFDDNGYPYNYPKPIEYEYIHSQGSEQQSDEDDQHTSSDGNNRDLVYV"

# Results are given in words; binding and its absence hold for the method and conditions named. In cells and extracts the contact can be indirect. Here binding means that the protein was enriched with, or labelled near, the bait; the list need not be complete.
